Laboratory results from article PMC7140707.
No constants are given. Whether binding was seen depends on the method and setting. In cells and extracts the contact can be indirect. A yes stands for co-enrichment or nearness to the bait. Other partners may have been found. Tags and fused reporters may be left off the sequences shown.

B1: PGA2 (protein, UniProt P53903 1-129)
chain: MSEVAETWVDTWMAKLVNYDYKHFIRLVIIVGGYLLLRNIASRELAKKQLAAQVEKDKRDKEEKRSKDLIDKPDDAATAETTSFGWGKKTRRRVKRQQELFENALEEAKRRNQGLDPDSDADIEELLEE
B2: PGK1 (protein, UniProt P00560 1-416)
chain: MSLSSKLSVQDLDLKDKRVFIRVDFNVPLDGKKITSNQRIVAALPTIKYVLEHHPRYVVLASHLGRPNGERNEKYSLAPVAKELQSLLGKDVTFLNDCVGPEVEAAVKASAPGSVILLENLRYHIEEEGSRKVDGQKVKASKEDVQKFRHELSSLADVYINDAFGTAHRAHSSMVGFDLPQRAAGFLLEKELKYFGKALENPTRPFLAILGGAKVADKIQLIDNLLDKVDSIIIGGGMAFTFKKVLENTEIGDSIFDKAGAEIVPKLMEKAKAKGVEVVLPVDFIIADAFSADANTKTVTDKEGIPAGWQGLDNGPESRKLFAATVAKAKTIVWNGPPGVFEFEKFAAGTKALLDEVVKSSAAGNTVIIGGGDTATVAKKYGVTDKISHVSTGGGASLELLEGKELPGVAFLSEKK
B3: PBP4 (protein, UniProt Q07362 1-185)
chain: MTTTSTTSVDGRTSSTLKATLSASGPNSNGPTPAVLPQKPKLTGWAQAAAKALPRQQQQQQQARKDDSVAVQPANTKTKTIASTAPPANIKGSSTANGSSTNKKFKRANKQPYNREEVRSYMHKLFQSYTAGEKSHSMKTYKQVLSETASGRVSTATDWGTVSSSKNKNKKYGCLSDIAKVLRNQ
B4: MSC3 (protein, UniProt Q05812 1-728)
chain: MVFGFTKRDRRVPDLSRYDYYYQNHEDYNKSPQLSAAAASAASAASPDRTNYSRSHSLVSHAPSIPRQRSSVKSPGRRLSTSSAAPPTSRAAAKQYSQKTYSLRSQRSGEYHLHPPGYTTNGSRMNSMTSGANVRRNYGKNKSTAGNNNDSRANSITVKTTQVTDPSGRTQSITKKTIRKINGYEYVETTTTTKNLVPLGDSQRHFDEFSENYMLQDDDILEEQASDNIHDIIEENETDNEKPYSPVSESHLQDDSELNVEKPDFPLGSYFHHKYSTDVMPLEEESSLSNFSDALDYIPPTHQTSSKYIHNKRKQASTTRRKKRPPAVKNAEAEAKKPLTEAEMYLKALEVAKRNVYHTDAASDNASAPLGSNKSRKSRMGQKMTLRSSSDSPTATANLVKSNVEVQPKRFTSSFFSRNTKSAPHEVHNHSVSTHFKSNKAVDPVPEPKSANTGLTDKEMYDQALKIAQARYYNSHGIQPEAVDNSTTAAKPRQVGVSHLGSTGSIPPNEQHYLGDSEIPVQSEVHEYEPIPLQKTKTTGSSKNKFKTMFDKVLQFSQENYGYQHKKEQGEQTPVTRNAEESFPAASISEGVTTAKPSSNEGVMTNPVVTDSPSPLQQQIDSTTASSNGQSQGNVPTSAVASTTRTRSPELQDNLKSSSSLLQDQTPQRQEDATDPTTSSTNELSAAEPTMVTSTHATKTIQAQTQDPPTKHKKSSFFTKLFKKKSSR
B5: POL4 (protein, UniProt P25615 1-582)
chain: MSLKGKFFAFLPNPNTSSNKFFKSILEKKGATIVSSIQNCLQSSRKEVVILIEDSFVDSDMHLTQKDIFQREAGLNDVDEFLGKIEQSGIQCVKTSCITKWVQNDKFAFQKDDLIKFQPSIIVISDNADDGQSSTDKESEISTDVESERNDDSNNKDMIQASKPLKRLLQGDKGRASLVTDKTKYKNNELIIGALKRLTKKYEIEGEKFRARSYRLAKQSMENCDFNVRSGEEAHTKLRNIGPSIAKKIQVILDTGVLPGLNDSVGLEDKLKYFKNCYGIGSEIAKRWNLLNFESFCVAAKKDPEEFVSDWTILFGWSYYDDWLCKMSRNECFTHLKKVQKALRGIDPECQVELQGSYNRGYSKCGDIDLLFFKPFCNDTTELAKIMETLCIKLYKDGYIHCFLQLTPNLEKLFLKRIVERFRTAKIVGYGERKRWYSSEIIKKFFMGVKLSPRELEELKEMKNDEGTLLIEEEEEEETKLKPIDQYMSLNAKDGNYCRRLDFFCCKWDELGAGRIHYTGSKEYNRWIRILAAQKGFKLTQHGLFRNNILLESFNERRIFELLNLKYAEPEHRNIEWEKKTA
B6: NBA1 (protein, UniProt Q08229 1-501)
chain: MSEEREENGISRATLNTQRLSAMIDSLNNEKDDRLFPSPTTTRTMITEEKADQSDVFKPPSRLLRSPAGDVSLPPGDNRSSMISNYSGIIQEGVEVSYVVKNRQQTQERRTSKDSNSLYSLKEPVSKNELPSLPMLPSEATLTKHLSDNQSTKSNTNADEIVIKPVTNAKPVGRFNSNTSKKVEGRGSLKLLSSPLRQEKVMRSSIGSGNLASESGSSTYNTKFHQSIQEQLEEEEEGNVSDKLSIVSSVIPELYTTTNEAPKAINPIRSETNDYNPTIPPRSKDRPRSRLFIEEGDGEGDLLTEEILPTPVQPGGHYKNSSQISTVSEQKSESYYSAATSMPPEEETYLTRPLPSTPNEDSRVTSNLKRDDTLKAIHDRANHTSTSTNKQDDDMYEDIIEETPKKTKLKKDTKKKLNKKKSVKELRSFDIDTLNQLLSVTKGTLIGSEFAQLGMKIEEKRALERLVDSLSRLTADMVLDPDRYEEGLKRLDKATKALEGF
B7: MRM1 (protein, UniProt P25270 21-412)
chain: QALKTRIKKKSSSFDKFFPQQSNSRKKQWETLNEDKASWFKRKYAHVHAREQDRAADPYGKKKAHVEKLKEIKNQAKLNQKSHKSKFQNKDIALKLMNDNPIFEYVYGTNSVYAALLNPSRNCHSRLLYHGTIPSKFLQIVDELKVTTELVDKHRLNLLTNYGVHNNIALETKPLQPVEIAYLGDMDTSSAALSIHELGFNNENIPHELPYGTKTDAKKFPLGLYLDEITDPHNIGAIIRSAYFLGVDFIVMSRRNCSPLTPVVSKTSSGALELLPIFYVDKPLEFFTKSQEMGGWTFITSHLANATSEKYTVGKTISMHDLNGLCNELPVVLVVGNESQGVRTNLKMRSDFFVEIPFGGIEKGNRAPEPIVDSLNVSVATALLIDNILTCK
B8: PHO8 (protein, UniProt P11491 1-566)
chain: MMTHTLPSEQTRLVPGSDSSSRPKKRRISKRSKIIVSTVVCIGLLLVLVQLAFPSSFALRSASHKKKNVIFFVTDGMGPASLSMARSFNQHVNDLPIDDILTLDEHFIGSSRTRSSDSLVTDSAAGATAFACALKSYNGAIGVDPHHRPCGTVLEAAKLAGYLTGLVVTTRITDATPASFSSHVDYRWQEDLIATHQLGEYPLGRVVDLLMGGGRSHFYPQGEKASPYGHHGARKDGRDLIDEAQSNGWQYVGDRKNFDSLLKSHGENVTLPFLGLFADNDIPFEIDRDEKEYPSLKEQVKVALGALEKASNEDKDSNGFFLMVEGSRIDHAGHQNDPASQVREVLAFDEAFQYVLEFAENSDTETVLVSTSDHETGGLVTSRQVTASYPQYVWYPQVLANATHSGEFLKRKLVDFVHEHKGASSKIENFIKHEILEKDLGIYDYTDSDLETLIHLDDNANAIQDKLNDMVSFRAQIGWTTHGHSAVDVNIYAYANKKATWSYVLNNLQGNHENTEVGQFLENFLELNLNEVTDLIRDTKHTSDFDATEIASEVQHYDEYYHELTN
B9: OSH3 (protein, UniProt P38713 1-996)
chain: METIDIQNRSFVVRWVKCGRGDVINYQIKPLKKSIEVGIYKKLKSSVDDHASAVHIAPDTKTLLDYTTKSLLHKGSSSNIEEHHRRSSQHSHSSSNGSDNKRKERSYSSLSISGIQQQSQEIPLREKLSASGFTLVKRVGNVSGNTMVQGDLEVKDTDYYYAFILDNSSSKNAKKKILFNASVINGDNQSMISTRSTPPARPTALSRTSTQQDMLFRVGQGRYLQGYLLKKRRKRLQGFKKRFFTLDFRYGTLSYYLNDHNQTCRGEIVISLSSVSANKKDKIIIIDSGMEVWVLKATTKENWQSWVDALQTCFDDQFEDKDTSTLEENPDILDDDKEVINKSSPQDHDHLTPTATTKSALSHRQHTQKDMDDIYVPLPSESYATFSMNLRLIQQRLEQCKKDSLSYKPTTLHQRSEGLNGTHSSSSVFTNNRVSSFNHSSSGMTSSDSLASEEVPSNKTYIEHALYNQLADLEVFVSRFVTQGEVLFKDHQILCKKAKDTRVSLTSYLSENDEFFDAEEEISRGVIILPDTEDDINNIVEETPLLGKSDQNEFTKEVQLSGSEQIASSSVESYTTNDENHSRKHLKNRHKNRRRGHPHHQKTKSAQSSTETFTSKDLFALSYPKSVTRRNDIPEAAASPPSLLSFLRKNVGKDLSSIAMPVTSNEPISILQLISETFEYAPLLTKATQRPDPITFVSAFAISFLSIYRDKTRTLRKPFNPLLAETFELIREDMGFRLISEKVSHRPPVFAFFAEHLDWECSYTVTPSQKFWGKSIELNNEGILRLKFKTTGELFEWTQPTTILKNLIAGERYMEPVNEFEVHSSKGDKSHILFDKAGMFSGRSEGFKVSIIPPPSSNRKKETLAGKWTQSLANETTHETIWEVGDLVSNPKKKYGFTKFTANLNEITEIEKGNLPPTDSRLRPDIRAYEEGNVDKAEEWKLKLEQLQRERRNKGQDVEPKYFEKVSKNEWKYITGPKSYWERRKKHDWSDISQLW
B10: AIM6 (protein, UniProt Q07716 18-390)
chain: VCALFSSRGRNPSLTDWEKLKDQKISNIDNFGLTGQHLLEFFQENLPFLSFSEEKYRHKHVSLYYDVFKEYILRRASSKKCLPVDSAIAKLNKDVNPMPVHSHNDYWRKLPLFEGLAYGASSTEADVWNIDEKILAVGHNEAYLDPVELTLDKLYTGPLLEILDEVNCQDSDADRKNGVFFNSPETSLFFYIDFKSDDNELTYKLLMEQYFKSLIDSGYLTYYDMKKDEIIWRPVTVILTGNYPTSLDILDNGNDNGYFESSQRFAFLDAPLLSLEPKYSKLSVAATVSFSQLMKHCGSDHWKVSLRGRMDSNEISCAKSIIDGAHALKLKTRIWGAPTWPANLVETISRQIIHDLGSDLLNLDNLFMASSLI

Each binder was assayed against T1, His6-Gis1 (yeast (S. cerevisiae)) (UniProt Q03833) (assay: affinity purification with mass spectrometry; His6-Gis1 pre-bound to a Ni Sepharose 6 Fast Flow column; crude yeast extract (Δgis1 cells grown in air or under hypoxia, Δgis1Δhem1 cells at intermediate or high ALA) loaded, 4 °C, 2 h; eluted complexes separated by SDS-PAGE, bands excised, MS; only the target purified).
T1 sequence: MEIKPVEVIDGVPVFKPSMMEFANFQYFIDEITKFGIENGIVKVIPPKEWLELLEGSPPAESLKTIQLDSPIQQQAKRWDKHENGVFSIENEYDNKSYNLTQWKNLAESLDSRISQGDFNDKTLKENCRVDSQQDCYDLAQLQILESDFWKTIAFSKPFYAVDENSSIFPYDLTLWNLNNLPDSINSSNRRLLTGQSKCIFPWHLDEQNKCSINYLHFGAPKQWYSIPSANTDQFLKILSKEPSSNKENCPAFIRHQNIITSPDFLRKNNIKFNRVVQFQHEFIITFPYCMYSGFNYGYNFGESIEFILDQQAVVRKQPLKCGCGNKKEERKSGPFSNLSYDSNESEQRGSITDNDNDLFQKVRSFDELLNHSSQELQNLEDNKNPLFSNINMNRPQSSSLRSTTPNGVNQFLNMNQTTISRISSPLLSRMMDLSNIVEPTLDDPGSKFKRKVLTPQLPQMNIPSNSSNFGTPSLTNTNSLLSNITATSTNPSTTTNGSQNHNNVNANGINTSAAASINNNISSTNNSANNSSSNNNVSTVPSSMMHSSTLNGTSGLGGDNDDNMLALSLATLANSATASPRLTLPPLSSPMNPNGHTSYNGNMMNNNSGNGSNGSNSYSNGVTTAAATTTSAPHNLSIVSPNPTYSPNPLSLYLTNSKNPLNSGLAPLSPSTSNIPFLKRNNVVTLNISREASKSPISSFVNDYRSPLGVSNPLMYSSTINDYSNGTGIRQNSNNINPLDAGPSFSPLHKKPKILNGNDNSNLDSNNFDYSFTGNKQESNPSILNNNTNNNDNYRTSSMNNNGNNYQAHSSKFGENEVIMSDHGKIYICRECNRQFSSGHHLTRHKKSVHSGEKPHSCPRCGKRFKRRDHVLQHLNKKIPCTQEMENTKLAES

binding, binds:
B1, B2, B3, B4, B5, B6, B7, B8, B9, B10
